Reference: patent US9284543B2, “Neutral active soluble truncated PH20 polypeptides and uses thereof” (Halozyme, Inc., priority 2008, dated 2016)

B1: SPAM1-DAFL: C-terminally truncated human PH20, precursor 469 aa (SEQ ID NO:31), mature 434 aa (SEQ ID NO:83) (protein, listed as Homo sapiens)
chain 1: MGVLKFKHIFFRSFVKSSGVSQIVFTFLLIPCCLTLNFRAPPVIPNVPFLWAWNAPSEFCLGKFDEPLDMSLFSFIGSPRINATGQGVTIFYVDRLGYYPYIDSITGVTVNGGIPQKISLQDHLDKAKKDITFYMPVDNLGMAVIDWEEWRPTWARNWKPKDVYKNRSIELVQQQNVQLSLTEATEKAKQEFEKAGKDFLVETIKLGKLLRPNHLWGYYLFPDCYNHHYKKPGYNGSCFNVEIKRNDDLSWLWNESTALYPSIYLNTQQSPVAATLYVRNRVREAIRVSKIPDAKSPLPVFAYTRIVFTDQVLKFLSQDELVYTFGETVALGASGIVIWGTLSIMRSMKSCLLLDNYMETILNPYIINVTLAAKMCSQVLCQEQGVCIRKNWNSSDYLHLNPDNFAIQLEKGGKFTVRGKPTLEDLEQFSEKFYCSCYSTLSCKEKADVKDTDAVDVCIADGVCIDAFL
chain 2: LNFRAPPVIPNVPFLWAWNAPSEFCLGKFDEPLDMSLFSFIGSPRINATGQGVTIFYVDRLGYYPYIDSITGVTVNGGIPQKISLQDHLDKAKKDITFYMPVDNLGMAVIDWEEWRPTWARNWKPKDVYKNRSIELVQQQNVQLSLTEATEKAKQEFEKAGKDFLVETIKLGKLLRPNHLWGYYLFPDCYNHHYKKPGYNGSCFNVEIKRNDDLSWLWNESTALYPSIYLNTQQSPVAATLYVRNRVREAIRVSKIPDAKSPLPVFAYTRIVFTDQVLKFLSQDELVYTFGETVALGASGIVIWGTLSIMRSMKSCLLLDNYMETILNPYIINVTLAAKMCSQVLCQEQGVCIRKNWNSSDYLHLNPDNFAIQLEKGGKFTVRGKPTLEDLEQFSEKFYCSCYSTLSCKEKADVKDTDAVDVCIADGVCIDAFL
modifications: HuPH20 precursor 1-469; Mature HuPH20 36-469
B2: SPAM1-IDAF: C-terminally truncated human PH20, precursor 468 aa (SEQ ID NO:32), mature 433 aa (SEQ ID NO:84) (protein, listed as Homo sapiens)
chain 1: MGVLKFKHIFFRSFVKSSGVSQIVFTFLLIPCCLTLNFRAPPVIPNVPFLWAWNAPSEFCLGKFDEPLDMSLFSFIGSPRINATGQGVTIFYVDRLGYYPYIDSITGVTVNGGIPQKISLQDHLDKAKKDITFYMPVDNLGMAVIDWEEWRPTWARNWKPKDVYKNRSIELVQQQNVQLSLTEATEKAKQEFEKAGKDFLVETIKLGKLLRPNHLWGYYLFPDCYNHHYKKPGYNGSCFNVEIKRNDDLSWLWNESTALYPSIYLNTQQSPVAATLYVRNRVREAIRVSKIPDAKSPLPVFAYTRIVFTDQVLKFLSQDELVYTFGETVALGASGIVIWGTLSIMRSMKSCLLLDNYMETILNPYIINVTLAAKMCSQVLCQEQGVCIRKNWNSSDYLHLNPDNFAIQLEKGGKFTVRGKPTLEDLEQFSEKFYCSCYSTLSCKEKADVKDTDAVDVCIADGVCIDAF
chain 2: LNFRAPPVIPNVPFLWAWNAPSEFCLGKFDEPLDMSLFSFIGSPRINATGQGVTIFYVDRLGYYPYIDSITGVTVNGGIPQKISLQDHLDKAKKDITFYMPVDNLGMAVIDWEEWRPTWARNWKPKDVYKNRSIELVQQQNVQLSLTEATEKAKQEFEKAGKDFLVETIKLGKLLRPNHLWGYYLFPDCYNHHYKKPGYNGSCFNVEIKRNDDLSWLWNESTALYPSIYLNTQQSPVAATLYVRNRVREAIRVSKIPDAKSPLPVFAYTRIVFTDQVLKFLSQDELVYTFGETVALGASGIVIWGTLSIMRSMKSCLLLDNYMETILNPYIINVTLAAKMCSQVLCQEQGVCIRKNWNSSDYLHLNPDNFAIQLEKGGKFTVRGKPTLEDLEQFSEKFYCSCYSTLSCKEKADVKDTDAVDVCIADGVCIDAF
modifications: HuPH20 precursor 1-468; Mature HuPH20 36-468
B3: SPAM1-CIDA: C-terminally truncated human PH20, precursor 467 aa (SEQ ID NO:33), mature 432 aa (SEQ ID NO:85) (protein, listed as Homo sapiens)
chain 1: MGVLKFKHIFFRSFVKSSGVSQIVFTFLLIPCCLTLNFRAPPVIPNVPFLWAWNAPSEFCLGKFDEPLDMSLFSFIGSPRINATGQGVTIFYVDRLGYYPYIDSITGVTVNGGIPQKISLQDHLDKAKKDITFYMPVDNLGMAVIDWEEWRPTWARNWKPKDVYKNRSIELVQQQNVQLSLTEATEKAKQEFEKAGKDFLVETIKLGKLLRPNHLWGYYLFPDCYNHHYKKPGYNGSCFNVEIKRNDDLSWLWNESTALYPSIYLNTQQSPVAATLYVRNRVREAIRVSKIPDAKSPLPVFAYTRIVFTDQVLKFLSQDELVYTFGETVALGASGIVIWGTLSIMRSMKSCLLLDNYMETILNPYIINVTLAAKMCSQVLCQEQGVCIRKNWNSSDYLHLNPDNFAIQLEKGGKFTVRGKPTLEDLEQFSEKFYCSCYSTLSCKEKADVKDTDAVDVCIADGVCIDA
chain 2: LNFRAPPVIPNVPFLWAWNAPSEFCLGKFDEPLDMSLFSFIGSPRINATGQGVTIFYVDRLGYYPYIDSITGVTVNGGIPQKISLQDHLDKAKKDITFYMPVDNLGMAVIDWEEWRPTWARNWKPKDVYKNRSIELVQQQNVQLSLTEATEKAKQEFEKAGKDFLVETIKLGKLLRPNHLWGYYLFPDCYNHHYKKPGYNGSCFNVEIKRNDDLSWLWNESTALYPSIYLNTQQSPVAATLYVRNRVREAIRVSKIPDAKSPLPVFAYTRIVFTDQVLKFLSQDELVYTFGETVALGASGIVIWGTLSIMRSMKSCLLLDNYMETILNPYIINVTLAAKMCSQVLCQEQGVCIRKNWNSSDYLHLNPDNFAIQLEKGGKFTVRGKPTLEDLEQFSEKFYCSCYSTLSCKEKADVKDTDAVDVCIADGVCIDA
modifications: HuPH20 precursor 1-467; Mature HuPH20 36-467
B4: SPAM1-VCID: C-terminally truncated human PH20, precursor 466 aa (SEQ ID NO:34), mature 431 aa (SEQ ID NO:86) (protein, listed as Homo sapiens)
chain 1: MGVLKFKHIFFRSFVKSSGVSQIVFTFLLIPCCLTLNFRAPPVIPNVPFLWAWNAPSEFCLGKFDEPLDMSLFSFIGSPRINATGQGVTIFYVDRLGYYPYIDSITGVTVNGGIPQKISLQDHLDKAKKDITFYMPVDNLGMAVIDWEEWRPTWARNWKPKDVYKNRSIELVQQQNVQLSLTEATEKAKQEFEKAGKDFLVETIKLGKLLRPNHLWGYYLFPDCYNHHYKKPGYNGSCFNVEIKRNDDLSWLWNESTALYPSIYLNTQQSPVAATLYVRNRVREAIRVSKIPDAKSPLPVFAYTRIVFTDQVLKFLSQDELVYTFGETVALGASGIVIWGTLSIMRSMKSCLLLDNYMETILNPYIINVTLAAKMCSQVLCQEQGVCIRKNWNSSDYLHLNPDNFAIQLEKGGKFTVRGKPTLEDLEQFSEKFYCSCYSTLSCKEKADVKDTDAVDVCIADGVCID
chain 2: LNFRAPPVIPNVPFLWAWNAPSEFCLGKFDEPLDMSLFSFIGSPRINATGQGVTIFYVDRLGYYPYIDSITGVTVNGGIPQKISLQDHLDKAKKDITFYMPVDNLGMAVIDWEEWRPTWARNWKPKDVYKNRSIELVQQQNVQLSLTEATEKAKQEFEKAGKDFLVETIKLGKLLRPNHLWGYYLFPDCYNHHYKKPGYNGSCFNVEIKRNDDLSWLWNESTALYPSIYLNTQQSPVAATLYVRNRVREAIRVSKIPDAKSPLPVFAYTRIVFTDQVLKFLSQDELVYTFGETVALGASGIVIWGTLSIMRSMKSCLLLDNYMETILNPYIINVTLAAKMCSQVLCQEQGVCIRKNWNSSDYLHLNPDNFAIQLEKGGKFTVRGKPTLEDLEQFSEKFYCSCYSTLSCKEKADVKDTDAVDVCIADGVCID
modifications: HuPH20 precursor 1-466; Mature HuPH20 36-466
B5: SPAM1-GVCI: C-terminally truncated human PH20, precursor 465 aa (SEQ ID NO:35), mature 430 aa (SEQ ID NO:87) (protein, listed as Homo sapiens)
chain 1: MGVLKFKHIFFRSFVKSSGVSQIVFTFLLIPCCLTLNFRAPPVIPNVPFLWAWNAPSEFCLGKFDEPLDMSLFSFIGSPRINATGQGVTIFYVDRLGYYPYIDSITGVTVNGGIPQKISLQDHLDKAKKDITFYMPVDNLGMAVIDWEEWRPTWARNWKPKDVYKNRSIELVQQQNVQLSLTEATEKAKQEFEKAGKDFLVETIKLGKLLRPNHLWGYYLFPDCYNHHYKKPGYNGSCFNVEIKRNDDLSWLWNESTALYPSIYLNTQQSPVAATLYVRNRVREAIRVSKIPDAKSPLPVFAYTRIVFTDQVLKFLSQDELVYTFGETVALGASGIVIWGTLSIMRSMKSCLLLDNYMETILNPYIINVTLAAKMCSQVLCQEQGVCIRKNWNSSDYLHLNPDNFAIQLEKGGKFTVRGKPTLEDLEQFSEKFYCSCYSTLSCKEKADVKDTDAVDVCIADGVCI
chain 2: LNFRAPPVIPNVPFLWAWNAPSEFCLGKFDEPLDMSLFSFIGSPRINATGQGVTIFYVDRLGYYPYIDSITGVTVNGGIPQKISLQDHLDKAKKDITFYMPVDNLGMAVIDWEEWRPTWARNWKPKDVYKNRSIELVQQQNVQLSLTEATEKAKQEFEKAGKDFLVETIKLGKLLRPNHLWGYYLFPDCYNHHYKKPGYNGSCFNVEIKRNDDLSWLWNESTALYPSIYLNTQQSPVAATLYVRNRVREAIRVSKIPDAKSPLPVFAYTRIVFTDQVLKFLSQDELVYTFGETVALGASGIVIWGTLSIMRSMKSCLLLDNYMETILNPYIINVTLAAKMCSQVLCQEQGVCIRKNWNSSDYLHLNPDNFAIQLEKGGKFTVRGKPTLEDLEQFSEKFYCSCYSTLSCKEKADVKDTDAVDVCIADGVCI
modifications: HuPH20 precursor 1-465; Mature HuPH20 36-465

The molecules below were run on CHO-S cells (assay: Western blot analysis of PH20 expression in media and cells after transient expression). Settings: band at approximately 66 kDa.
Format: cell-based, Chinese Hamster
Description: The mutant PH20-HZ24 plasmids generated in Example 1 were transiently […] into CHO—S cells (derived from Chinese Hamster Ovary CHO K1 cells) using GeneJuice® (Novagen) according to the manufacturer's instructions. In short, the CHO—S cells were grown in CD CHO medium supplemented with L-glutamine. Prior to transfection, the CHO—S cells were plated in 6-well plates, with approximately 5×10^5 cells per well, and grown overnight at 37° C. with 5% CO2. The medium was then removed and the CHO—S cells were washed 2 times with 1 mL serum-free medium. GeneJuice® was mixed with serum-free media followed by the addition of 2 μg mutant-HZ24 DNA. After incubating at room temperature for 5-15 minutes, the GeneJuice®/DNA mixture was added dropwise to an individual well containing the washed CHO—S cells. After 4 hours, the medium was replaced with 1 mL CD-CHO medium supplemented with L-glutamine and the cells were incubated for 72 hours at 37° C. with 5% CO2. Following expression, the media and cells were harvested separately.
The mutant PH20-HZ24 plasmids generated in Example 1 were transiently […] into CHO—S cells using GeneJuice® (Novagen) according to the manufacturer's instructions. […]
In this example, following transient expression, as described in Example 2 above, the media and cells were harvested separately and analyzed for PH20 expression and solublility by Western blot analysis. Solubility of the C-terminus truncation mutants was determined by examining whether the expressed protein was present in the growth media or in the cells. […] Cells expressing these mutants were treated with phosphoinositol-phospholipase C (PI-PLC), which cleaves the GPI-anchor allowing the release of soluble protein into the media, and the presence of PH20 in the resulting media and cells was determined by Western blot analysis.
Non-reduced samples were run on a 4-20% Tris-Glycine gel and transferred to PVDF membrane using iBlot (Invitrogen). For the Western blot, rabbit anti-PH20 IgG (0.5 μg/mL) was used as the primary antibody and HRP-conjugated goat anti-rabbit IgG (0.1 ng/mL, Cat#DC03L, EMD) was used as the secondary antibody. Evidence of expression is determined by a band at approximately 66 kDa, corresponding to recombinant human PH20 hyaluronidase.
B1 was tested, and the “Protein Expression” value was “YES”. For B2, the “Protein Expression” value was “YES”. In the case of B3, the “Protein Expression” value is reported as “YES”. In the case of B4, the “Protein Expression” value is reported as “YES”. B5 was tested, and the “Protein Expression” value was “YES”.
